pIC50: −log10 of the molar value. Some entries share one result that the patent states for a list of compounds.
Molecular target: T1, human CCR10 (Homo sapiens, UniProt P46092)
T1 construct: expressed in transfected cells; host or cells: KJMGER8 cells (Namalwa cell-derived cell line); expression induced with 10 nmol/L beta-estradiol for 24 hr
T1 sequence (P46092 1-362): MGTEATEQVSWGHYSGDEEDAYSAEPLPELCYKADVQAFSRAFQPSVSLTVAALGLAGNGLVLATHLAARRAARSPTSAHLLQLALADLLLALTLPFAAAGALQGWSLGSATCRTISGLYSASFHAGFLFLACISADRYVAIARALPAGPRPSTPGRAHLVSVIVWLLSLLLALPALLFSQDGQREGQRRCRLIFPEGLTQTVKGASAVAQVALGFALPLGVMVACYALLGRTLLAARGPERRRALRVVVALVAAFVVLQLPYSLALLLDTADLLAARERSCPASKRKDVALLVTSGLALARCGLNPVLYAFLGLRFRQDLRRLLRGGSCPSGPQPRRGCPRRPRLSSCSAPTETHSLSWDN
Test: Calcium assay of human CCR10 (CCR10 antagonistic effect, CTACK-induced increase of intracellular calcium ion concentration in hCCR10G16 cells)
Format: cell-based
Conditions: human CCR10-expressing hCCR10G16 cells, 300 nmol/L human recombinant CTACK, Fluo-3, FDSS; read-out: concentration at which the increase in the calcium ion concentration is inhibited by not less than 50%

## Cn1cc(C(=O)N2CCC(c3ccc(F)cc3)CC2)c(Nc2ccc(C#N)c(C(F)(F)F)c2)c(Cl)c1=O [Compound 112, 4-{3-chloro-5-[4-(4-fluorophenyl)piperidine-1-carbonyl]-1-methyl-2-oxo-1,2-dihydropyridin-4-ylamino}-2-(trifluoromethyl)benzonitrile]
  pIC50: ≥ 6.00

## COc1ccc(Nc2c(C(=O)N3CCC(c4ccc(F)cc4)CC3)cn(C)c(=O)c2Cl)cc1OC [Compound 68, 3-chloro-4-(3,4-dimethoxyphenylamino)-5-[4-(4-fluorophenyl)piperidine-1-carbonyl]-1-methylpyridin-2(1H)-one]
  pIC50: ≥ 6.00

## CCn1cc(C(=O)N2CCC(c3ccc(F)cc3)CC2)c(Nc2ccc(Cl)cc2C)c(Cl)c1=O [Compound 136, 3-chloro-4-(4-chloro-2-methylphenylamino)-1-ethyl-5-[4-(4-fluorophenyl)piperidine-1-carbonyl]pyridin-2(1H)-one]
  pIC50: ≥ 6.00

## COc1ccc(Nc2c(C(=O)N3CCC(c4ccc(F)cc4)CC3)cn(C)c(=O)c2Cl)c(OC)c1 [Compound 63, 3-chloro-4-(2,4-dimethoxyphenylamino)-5-[4-(4-fluorophenyl)piperidine-1-carbonyl]-1-methylpyridin-2(1H)-one]
  pIC50: ≥ 6.00

## O=C(c1cn(CCN2CCOCC2)c(=O)c(Cl)c1Nc1ccc(F)cc1F)N1CCC(c2ccc(F)cc2)CC1 [Compound 182, 3-chloro-4-(2,4-difluorophenylamino)-5-[4-(4-fluorophenyl)piperidine-1-carbonyl]-1-(2-morpholinoethyl)pyridin-2(1H)-one]
  pIC50: ≥ 6.00

## Cc1ccc(Cl)cc1Nc1c(C(=O)N2CCC(c3ccc(F)cc3)CC2)cn(OCc2ccccc2)c(=O)c1Cl [Compound 21, 1-(benzyloxy)-3-chloro-4-(5-chloro-2-methylphenylamino)-5-[4-(4-fluorophenyl)piperidine-1-carbonyl]pyridin-2(1H)-one]
  pIC50: ≥ 6.00

## Cc1cc(Nc2c(C(=O)N3CCC(c4ccc(F)cc4)CC3)cn(C)c(=O)c2Cl)c(Cl)cc1F [Compound 41, 3-chloro-4-(2-chloro-4-fluoro-5-methylphenylamino)-5-[4-(4-fluorophenyl)piperidine-1-carbonyl]-1-methylpyridin-2(1H)-one]
  pIC50: ≥ 6.00

## Cc1ccc(Cl)cc1Nc1c(C(=O)N2CCN(c3ccccc3Cl)CC2)cn(C)c(=O)c1Cl [Compound 202, 3-chloro-4-(5-chloro-2-methylphenylamino)-5-[4-(2-chlorophenyl)piperazine-1-carbonyl]-1-methylpyridin-2(1H)-one]
  pIC50: ≥ 6.00

## Cc1ccc(Cl)cc1Nc1c(C(=O)N2CCC(c3ccc(F)cc3)CC2)cn(OCC2CC2)c(=O)c1Cl [Compound 213, 3-chloro-4-(5-chloro-2-methylphenylamino)-1-(cyclopropylmethoxy)-5-[4-(4-fluorophenyl)piperidine-1-carbonyl]pyridin-2(1H)-one]
  pIC50: ≥ 6.00

## Cc1cc(Nc2c(C(=O)N3CCC(c4ccc(F)cc4)CC3)cn(C)c(=O)c2Cl)ccc1F [Compound 75, 3-chloro-4-(4-fluoro-3-methylphenylamino)-5-[4-(4-fluorophenyl)piperidine-1-carbonyl]-1-methylpyridin-2(1H)-one]
  pIC50: ≥ 6.00

## O=C(c1cn(Cc2cccnc2)c(=O)c(Cl)c1Nc1ccc(F)cc1F)N1CCC(c2ccc(F)cc2)CC1 [Compound 155, 3-chloro-4-(2,4-difluorophenylamino)-5-[4-(4-fluorophenyl)piperidine-1-carbonyl]-1-(pyridin-3-ylmethyl)pyridin-2(1H)-one]
  pIC50: ≥ 6.00

## Cn1cc(C(=O)N2CCC(c3ccc(F)cc3)CC2)c(Nc2cccc(F)c2F)c(Cl)c1=O [Compound 90, 3-chloro-4-(2,3-difluorophenylamino)-5-[4-(4-fluorophenyl)piperidine-1-carbonyl]-1-methylpyridin-2(1H)-one]
  pIC50: ≥ 6.00

## Cc1ccc(Cl)c(Nc2cc(=O)n(CC#N)cc2C(=O)N2CCC(c3ccc(F)cc3)CC2)c1 [Compound 5, 2-{4-(2-chloro-5-methylphenylamino)-5-[4-(4-fluorophenyl)piperidine-1-carbonyl]-2-oxopyridin-1(2H)-yl}acetonitrile]
  pIC50: ≥ 6.00

## Cc1ccc(Cl)cc1Nc1c(C(=O)N2CCC(c3ccc(F)cc3)CC2)cn(N(C)C)c(=O)c1Cl [Compound 217, 3-chloro-4-(5-chloro-2-methylphenylamino)-1-(dimethylamino)-5-[4-(4-fluorophenyl)piperidine-1-carbonyl]pyridin-2(1H)-one]
  pIC50: ≥ 6.00

## Cn1cc(C(=O)N2CCC(c3ccc(F)cc3)CC2)c(Nc2ccc3c(c2)CCC3)c(Cl)c1=O [Compound 107, 3-chloro-4-(2,3-dihydro-1H-inden-5-ylamino)-5-[4-(4-fluorophenyl)piperidine-1-carbonyl]-1-methylpyridin-2(1H)-one]
  pIC50: ≥ 6.00

## COC(=O)Cn1cc(C(=O)N2CCC(c3ccc(F)cc3)CC2)c(Nc2cc(C)ccc2Cl)cc1=O [Compound 29, methyl 2-{4-(2-chloro-5-methylphenylamino)-5-[4-(4-fluorophenyl)piperidine-1-carbonyl]-2-oxopyridin-1 (2H)-yl}acetate]
  pIC50: ≥ 6.00

## Cc1ccc(Cl)c(Nc2cc(=O)n(Cc3noc(=S)[nH]3)cc2C(=O)N2CCC(c3ccc(F)cc3)CC2)c1 [Compound 16, 4-(2-chloro-5-methylphenylamino)-5-[4-(4-fluorophenyl)piperidine-1-carbonyl]-1-[(5-thioxo-4,5-dihydro-1,2,4-oxadiazol-3-yl)methyl]pyridin-2(1H)-one]
  pIC50: ≥ 6.00

## COc1ccc(Nc2c(C(=O)N3CCC(c4ccc(F)cc4)CC3)cn(C3CC3)c(=O)c2Cl)cc1 [Compound 55, 3-chloro-1-cyclopropyl-5-[4-(4-fluorophenyl)piperidine-1-carbonyl]-4-(4-methoxyphenylamino)pyridin-2(1H)-one]
  pIC50: ≥ 6.00

## N#CCn1cc(C(=O)N2CCC(c3ccc(F)cc3)CC2)c(NCc2ccccc2)cc1=O [Compound 31, 2-{4-(benzylamino)-5-[4-(4-fluorophenyl)piperidine-1-carbonyl]-2-oxopyridin-1(2H)-yl}acetonitrile]
  pIC50: ≥ 6.00

## Cn1cc(C(=O)N2CCC(c3ccc(F)cc3)CC2)c(Nc2cc(F)c(C#N)c(F)c2)c(Cl)c1=O [Compound 110, 4-{3-chloro-5-[4-(4-fluorophenyl)piperidine-1-carbonyl]-1-methyl-2-oxo-1,2-dihydropyridin-4-ylamino}-2,6-difluorobenzonitrile]
  pIC50: ≥ 6.00

## Cc1cccc(Nc2c(C(=O)N3CCC(c4ccc(F)cc4)CC3)cn(OCCO)c(=O)c2C)c1 [Compound 229, 5-[4-(4-fluorophenyl)piperidine-1-carbonyl]-1-(2-hydroxyethoxy)-3-methyl-4-(m-tolylamino)pyridin-2(1H)-one]
  pIC50: ≥ 6.00

## CSc1ccc(Nc2c(C(=O)N3CCC(c4ccc(F)cc4)CC3)cn(C)c(=O)c2Cl)cc1C#N [Compound 133, 5-{3-chloro-5-[4-(4-fluorophenyl)piperidine-1-carbonyl]-1-methyl-2-oxo-1,2-dihydropyridin-4-ylamino}-2-(methylthio)benzonitrile]
  pIC50: ≥ 6.00

## Cc1c(Nc2ccc(Cl)cc2F)c(C(=O)N2CCC(c3ccc(F)cc3)CC2)cn(C)c1=O [Compound 193, 4-(4-chloro-2-fluorophenylamino)-5-[4-(4-fluorophenyl)piperidine-1-carbonyl]-1,3-dimethylpyridin-2(1H)-one]
  pIC50: ≥ 6.00

— US9643952B2, “Pyridone compound” (KYOWA HAKKO KIRIN CO., LTD., priority 2012, dated 2017)
